Measured values reported in publication PMC4559404.

The chains behind the UniProt entries cited, without tags or fusion partners. Where a name states a change or a piece, a line headed by the entry shows the natural chain unless it says otherwise.
UniProt A4HVG8: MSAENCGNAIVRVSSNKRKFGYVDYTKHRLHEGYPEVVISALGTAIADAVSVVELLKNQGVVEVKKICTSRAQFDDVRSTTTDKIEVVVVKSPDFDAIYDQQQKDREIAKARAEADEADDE
UniProt A4IA34: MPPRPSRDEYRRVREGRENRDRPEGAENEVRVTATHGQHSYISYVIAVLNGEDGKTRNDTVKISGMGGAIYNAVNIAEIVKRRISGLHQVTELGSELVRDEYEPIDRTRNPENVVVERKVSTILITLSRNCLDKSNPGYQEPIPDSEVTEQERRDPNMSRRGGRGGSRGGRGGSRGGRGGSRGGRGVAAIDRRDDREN
UniProt A4I011: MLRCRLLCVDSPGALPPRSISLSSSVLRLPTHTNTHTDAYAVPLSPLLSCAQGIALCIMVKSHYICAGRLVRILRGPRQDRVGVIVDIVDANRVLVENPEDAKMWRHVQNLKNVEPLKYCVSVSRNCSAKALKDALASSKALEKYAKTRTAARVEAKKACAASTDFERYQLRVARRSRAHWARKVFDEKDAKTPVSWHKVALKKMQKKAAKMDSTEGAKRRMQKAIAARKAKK
UniProt A4HWJ3: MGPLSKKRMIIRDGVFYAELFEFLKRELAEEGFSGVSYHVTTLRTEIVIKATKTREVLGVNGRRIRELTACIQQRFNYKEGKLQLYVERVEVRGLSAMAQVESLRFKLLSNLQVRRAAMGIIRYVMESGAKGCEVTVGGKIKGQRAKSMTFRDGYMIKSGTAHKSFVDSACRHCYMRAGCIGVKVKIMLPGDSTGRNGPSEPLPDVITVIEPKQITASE
UniProt A4IAU0: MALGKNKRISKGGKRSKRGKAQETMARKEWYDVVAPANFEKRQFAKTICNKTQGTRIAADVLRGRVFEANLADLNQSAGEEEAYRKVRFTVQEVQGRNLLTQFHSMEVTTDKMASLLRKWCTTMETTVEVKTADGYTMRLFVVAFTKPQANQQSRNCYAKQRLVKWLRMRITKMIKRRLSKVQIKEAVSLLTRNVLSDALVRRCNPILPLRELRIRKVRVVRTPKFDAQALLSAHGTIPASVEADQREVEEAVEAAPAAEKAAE
UniProt A0A381MCG8: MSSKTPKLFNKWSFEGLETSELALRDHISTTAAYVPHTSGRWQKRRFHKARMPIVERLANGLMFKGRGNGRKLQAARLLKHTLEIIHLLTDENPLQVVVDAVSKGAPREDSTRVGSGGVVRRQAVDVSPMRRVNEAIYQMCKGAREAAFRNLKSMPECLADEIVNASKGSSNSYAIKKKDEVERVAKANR
UniProt A4HZI4: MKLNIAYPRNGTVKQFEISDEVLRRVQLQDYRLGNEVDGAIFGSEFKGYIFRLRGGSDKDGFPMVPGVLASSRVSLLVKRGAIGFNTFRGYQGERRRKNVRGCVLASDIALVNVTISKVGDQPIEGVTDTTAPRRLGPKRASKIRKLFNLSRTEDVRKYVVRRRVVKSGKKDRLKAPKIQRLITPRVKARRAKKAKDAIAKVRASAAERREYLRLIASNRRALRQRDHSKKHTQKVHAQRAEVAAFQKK
UniProt A4I3H3: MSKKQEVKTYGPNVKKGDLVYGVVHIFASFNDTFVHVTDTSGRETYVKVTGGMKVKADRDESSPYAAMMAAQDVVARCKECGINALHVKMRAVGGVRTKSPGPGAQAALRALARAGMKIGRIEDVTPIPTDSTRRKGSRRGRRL
UniProt A4I3Y8: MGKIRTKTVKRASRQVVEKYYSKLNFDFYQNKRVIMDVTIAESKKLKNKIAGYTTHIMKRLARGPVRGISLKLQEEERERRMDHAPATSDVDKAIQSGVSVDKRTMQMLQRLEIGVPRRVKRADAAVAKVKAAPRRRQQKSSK
UniProt A4ID74: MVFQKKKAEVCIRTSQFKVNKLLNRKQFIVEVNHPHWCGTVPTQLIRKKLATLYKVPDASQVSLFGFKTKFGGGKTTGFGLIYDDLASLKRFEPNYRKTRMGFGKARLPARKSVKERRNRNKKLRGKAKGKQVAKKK
UniProt A4IDS4: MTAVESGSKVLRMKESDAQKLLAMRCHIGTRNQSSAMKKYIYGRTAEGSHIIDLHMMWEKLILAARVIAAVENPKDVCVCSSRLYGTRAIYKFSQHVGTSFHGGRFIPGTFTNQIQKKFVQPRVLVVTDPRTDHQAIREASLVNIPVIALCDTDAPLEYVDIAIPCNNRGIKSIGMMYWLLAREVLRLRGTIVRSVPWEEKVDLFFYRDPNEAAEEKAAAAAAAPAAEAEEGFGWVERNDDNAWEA
UniProt A4IB88: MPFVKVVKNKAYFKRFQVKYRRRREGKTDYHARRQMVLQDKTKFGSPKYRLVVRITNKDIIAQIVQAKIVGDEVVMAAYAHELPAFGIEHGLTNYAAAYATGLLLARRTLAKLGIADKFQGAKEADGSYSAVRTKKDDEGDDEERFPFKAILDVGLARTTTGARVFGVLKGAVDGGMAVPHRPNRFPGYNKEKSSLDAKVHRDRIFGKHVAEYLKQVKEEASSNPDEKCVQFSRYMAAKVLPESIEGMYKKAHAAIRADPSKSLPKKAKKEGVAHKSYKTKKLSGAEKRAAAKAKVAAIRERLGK
UniProt A4HT78: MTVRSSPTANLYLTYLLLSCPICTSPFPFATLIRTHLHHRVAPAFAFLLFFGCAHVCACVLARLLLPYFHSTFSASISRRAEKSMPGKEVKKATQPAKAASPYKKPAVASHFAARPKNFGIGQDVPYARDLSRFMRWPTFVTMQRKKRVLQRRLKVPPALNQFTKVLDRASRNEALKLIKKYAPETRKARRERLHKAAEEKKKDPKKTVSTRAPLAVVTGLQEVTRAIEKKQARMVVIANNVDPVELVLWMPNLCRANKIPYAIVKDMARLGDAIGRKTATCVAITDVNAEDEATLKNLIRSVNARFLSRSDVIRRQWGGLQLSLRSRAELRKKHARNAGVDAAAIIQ
UniProt A4HS42: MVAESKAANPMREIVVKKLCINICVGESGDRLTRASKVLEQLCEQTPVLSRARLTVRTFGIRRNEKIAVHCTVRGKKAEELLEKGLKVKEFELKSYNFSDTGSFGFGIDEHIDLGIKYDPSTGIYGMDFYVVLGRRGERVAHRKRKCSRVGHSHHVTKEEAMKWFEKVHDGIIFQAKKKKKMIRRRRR
UniProt A4I4W0: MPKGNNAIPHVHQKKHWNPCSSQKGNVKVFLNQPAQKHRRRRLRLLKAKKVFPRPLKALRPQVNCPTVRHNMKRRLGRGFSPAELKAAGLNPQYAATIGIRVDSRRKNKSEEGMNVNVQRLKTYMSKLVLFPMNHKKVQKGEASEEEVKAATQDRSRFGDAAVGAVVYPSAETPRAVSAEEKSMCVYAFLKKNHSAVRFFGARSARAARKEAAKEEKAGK
UniProt A4HSU9: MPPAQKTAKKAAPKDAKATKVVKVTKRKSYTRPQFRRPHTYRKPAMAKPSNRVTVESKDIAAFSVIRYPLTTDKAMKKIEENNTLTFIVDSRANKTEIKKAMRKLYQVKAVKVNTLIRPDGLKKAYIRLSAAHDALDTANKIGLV
UniProt E9AHW1: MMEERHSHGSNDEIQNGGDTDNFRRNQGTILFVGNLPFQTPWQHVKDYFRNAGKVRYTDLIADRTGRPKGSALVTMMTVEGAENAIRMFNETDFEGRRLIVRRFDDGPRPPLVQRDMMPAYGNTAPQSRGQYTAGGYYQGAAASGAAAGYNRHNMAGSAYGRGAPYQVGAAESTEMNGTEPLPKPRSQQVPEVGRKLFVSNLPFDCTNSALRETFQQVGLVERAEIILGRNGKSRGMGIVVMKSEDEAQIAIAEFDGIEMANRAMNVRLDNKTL
UniProt A4I2T3: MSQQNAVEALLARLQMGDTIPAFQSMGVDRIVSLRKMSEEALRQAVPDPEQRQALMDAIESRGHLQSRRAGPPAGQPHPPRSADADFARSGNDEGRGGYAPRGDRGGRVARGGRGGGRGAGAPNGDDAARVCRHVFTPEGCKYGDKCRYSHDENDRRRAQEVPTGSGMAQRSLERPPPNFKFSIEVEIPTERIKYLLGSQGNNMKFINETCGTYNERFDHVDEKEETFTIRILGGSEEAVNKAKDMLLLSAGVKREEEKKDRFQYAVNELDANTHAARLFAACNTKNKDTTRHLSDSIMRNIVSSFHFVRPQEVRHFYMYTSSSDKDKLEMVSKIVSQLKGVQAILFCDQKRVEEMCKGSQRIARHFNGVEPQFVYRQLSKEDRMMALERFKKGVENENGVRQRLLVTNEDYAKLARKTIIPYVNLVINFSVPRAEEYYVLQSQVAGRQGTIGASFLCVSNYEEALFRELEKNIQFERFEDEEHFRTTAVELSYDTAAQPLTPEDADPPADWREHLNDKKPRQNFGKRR
UniProt A4HSL8: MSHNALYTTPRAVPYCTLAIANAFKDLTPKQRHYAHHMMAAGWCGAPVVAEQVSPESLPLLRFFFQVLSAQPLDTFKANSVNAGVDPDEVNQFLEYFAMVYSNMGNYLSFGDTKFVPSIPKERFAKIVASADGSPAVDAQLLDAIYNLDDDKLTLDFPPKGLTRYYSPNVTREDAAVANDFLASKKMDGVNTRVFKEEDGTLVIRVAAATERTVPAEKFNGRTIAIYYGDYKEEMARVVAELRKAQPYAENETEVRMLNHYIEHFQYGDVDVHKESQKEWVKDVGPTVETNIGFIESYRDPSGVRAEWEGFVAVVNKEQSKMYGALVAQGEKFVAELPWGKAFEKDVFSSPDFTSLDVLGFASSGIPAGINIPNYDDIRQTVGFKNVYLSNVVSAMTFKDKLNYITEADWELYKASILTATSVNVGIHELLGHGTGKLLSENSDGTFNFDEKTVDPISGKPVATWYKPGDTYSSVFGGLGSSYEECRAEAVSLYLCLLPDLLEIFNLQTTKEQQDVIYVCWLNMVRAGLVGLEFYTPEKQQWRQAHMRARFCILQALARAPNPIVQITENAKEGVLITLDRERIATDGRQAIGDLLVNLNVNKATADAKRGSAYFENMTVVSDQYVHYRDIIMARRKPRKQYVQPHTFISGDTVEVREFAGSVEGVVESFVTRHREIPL
UniProt A4I195: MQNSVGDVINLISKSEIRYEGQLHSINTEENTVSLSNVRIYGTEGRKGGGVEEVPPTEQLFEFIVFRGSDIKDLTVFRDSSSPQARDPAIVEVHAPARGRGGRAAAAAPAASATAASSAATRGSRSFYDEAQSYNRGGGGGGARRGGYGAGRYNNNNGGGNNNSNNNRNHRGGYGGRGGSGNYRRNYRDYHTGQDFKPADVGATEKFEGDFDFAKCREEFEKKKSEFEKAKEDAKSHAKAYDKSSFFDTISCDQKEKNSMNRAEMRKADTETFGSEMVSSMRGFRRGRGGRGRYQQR
UniProt A4HY41: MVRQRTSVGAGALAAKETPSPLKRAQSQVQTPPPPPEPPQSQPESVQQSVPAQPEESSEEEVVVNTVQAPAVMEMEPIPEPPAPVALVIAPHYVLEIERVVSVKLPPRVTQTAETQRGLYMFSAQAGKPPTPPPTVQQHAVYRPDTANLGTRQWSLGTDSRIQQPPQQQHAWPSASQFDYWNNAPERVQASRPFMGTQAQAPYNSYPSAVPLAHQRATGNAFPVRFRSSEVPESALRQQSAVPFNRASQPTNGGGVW
UniProt Q9NJS2: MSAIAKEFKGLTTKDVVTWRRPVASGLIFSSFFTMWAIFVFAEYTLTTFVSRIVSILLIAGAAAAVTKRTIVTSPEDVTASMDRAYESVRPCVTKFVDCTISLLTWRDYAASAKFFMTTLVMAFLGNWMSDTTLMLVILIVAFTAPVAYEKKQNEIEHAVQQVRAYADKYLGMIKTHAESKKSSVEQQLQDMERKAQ
UniProt A4I4G7: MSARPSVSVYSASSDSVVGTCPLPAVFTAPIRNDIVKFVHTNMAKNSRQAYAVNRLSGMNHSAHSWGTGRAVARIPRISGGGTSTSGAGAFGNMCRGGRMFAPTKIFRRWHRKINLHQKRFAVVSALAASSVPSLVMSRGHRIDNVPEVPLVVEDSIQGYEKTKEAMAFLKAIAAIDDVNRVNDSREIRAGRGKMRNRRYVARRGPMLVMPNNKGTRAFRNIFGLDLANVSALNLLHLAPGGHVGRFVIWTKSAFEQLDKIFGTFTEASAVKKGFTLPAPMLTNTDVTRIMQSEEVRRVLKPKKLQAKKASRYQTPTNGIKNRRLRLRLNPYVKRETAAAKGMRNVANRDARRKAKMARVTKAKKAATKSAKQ
UniProt A4HRG4: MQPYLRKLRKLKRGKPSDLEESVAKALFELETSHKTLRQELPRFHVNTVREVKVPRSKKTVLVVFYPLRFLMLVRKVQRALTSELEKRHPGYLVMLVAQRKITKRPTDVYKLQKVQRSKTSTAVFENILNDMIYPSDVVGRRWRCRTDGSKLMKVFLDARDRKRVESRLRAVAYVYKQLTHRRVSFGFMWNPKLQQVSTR
UniProt A4HXQ6: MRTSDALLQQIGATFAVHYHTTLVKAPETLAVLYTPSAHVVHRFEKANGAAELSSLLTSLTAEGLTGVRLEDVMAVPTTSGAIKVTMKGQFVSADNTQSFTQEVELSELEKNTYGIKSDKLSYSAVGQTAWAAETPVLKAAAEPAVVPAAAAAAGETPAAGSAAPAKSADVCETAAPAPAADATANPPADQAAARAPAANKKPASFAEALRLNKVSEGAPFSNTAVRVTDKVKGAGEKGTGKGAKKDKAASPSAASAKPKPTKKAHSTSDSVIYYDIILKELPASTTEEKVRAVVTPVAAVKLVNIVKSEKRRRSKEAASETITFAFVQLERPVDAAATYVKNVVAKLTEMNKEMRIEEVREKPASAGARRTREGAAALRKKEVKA

How the values were obtained:
LiAlba1-HA (L. infantum) = LiAlba1-HA (L. infantum) (UniProt A4HVG8); test: affinity purification with mass spectrometry; anti-HA antibody on Dynabeads Protein G; pre-cleared cytoplasmic extracts (10 mM Hepes, 3 mM MgCl2, 14 mM KCl, pH 7.5, 5% glycerol, 0.2% NP-40) of L. infantum promastigotes and axenic amastigotes expressing LiAlba1-HA or HA-LiAlba3; 90 min at 4°C; LC-MS/MS; only proteins absent from the wild type control
HA-LiAlba3 (L. infantum) = HA-LiAlba3 (L. infantum) (UniProt A4IA34); test: as above

binding (LiAlba1-HA (L. infantum))	binding (HA-LiAlba3 (L. infantum))	Substance
binds		40S ribosomal protein L14, putative (from UniProt A4I011)
binds	binds	40S ribosomal protein S3, putative (from UniProt A4HWJ3)
binds	binds	40S ribosomal protein S3A, putative (from UniProt A4IAU0)
binds		40S ribosomal protein S5 (from UniProt A0A381MCG8)
binds	binds	40S ribosomal protein S6, putative (from UniProt A4HZI4)
binds	binds	40S ribosomal protein S14 (from UniProt A4I3H3)
binds	binds	40S ribosomal protein S17, putative (from UniProt A4I3Y8)
binds	binds	40S ribosomal protein S19 protein, putative (from UniProt A4IA55)
binds	binds	40S ribosomal protein S24e (from UniProt A4ID74)
binds	binds	40S ribosomal protein SA, putative (from UniProt A4IDS4)
binds	binds	60S ribosomal protein L5, putative (from UniProt A4IB88)
binds	binds	60S ribosomal protein L7a, putative (from UniProt A4HT78)
binds	binds	60S ribosomal protein L9, putative (from UniProt A4I672)
binds		60S ribosomal protein L11 (L5, L16) (from UniProt A4HS42)
binds	binds	60S ribosomal protein L13, putative (from UniProt A4I4W0)
binds	binds	60S ribosomal protein L23a, putative (from UniProt A4HSU9)
	binds	60S ribosomal protein L26, putative (from UniProt A4I114)
binds	binds	DEAD-box ATP-dependent RNA helicase LinJ.32.0410 (from UniProt A4I7K4)
binds		LiAlba3 (endogenous) (from UniProt A4IA34)
binds	binds	NTF2-like protein LinJ.21.0490 (from UniProt A4HZ42)
binds	binds	RNA binding protein, putative (LinJ.32.0790) (from UniProt A4I7P2)
binds	binds	RNA-binding protein, putative | DRBD2 (from UniProt E9AHW1)
binds	binds	ZC3H41 helicase homolog (LinJ.27.1220) (from UniProt A4I2T3)
	binds	dipeptidyl-peptidase III (LinJ.05.0960) (from UniProt A4HSL8)
binds	binds	homolog of Rap55 (LinJ.25.0550) (from UniProt A4I195)
binds	binds	putative vacuolar protein (LinJ.19.0020) (from UniProt A4HY41)
binds		reticulon domain protein, 22 potentially aggravating protein (from UniProt Q9NJS2)
binds	binds	ribosomal protein L1a, putative (from UniProt A4I4G7)
binds	binds	ribosomal protein S7, putative (from UniProt A4HRG4)
binds	binds	second NTF-2 like protein specific of trypanosomatids (LinJ.18.0300) (from UniProt A4HXQ6)

No constants are given. Whether binding was seen depends on the method and setting. Binding seen in cells or lysates may run through a third protein. A yes stands for co-enrichment or nearness to the bait. Other partners may have been found.
